Results published in US20080281105A1, “Novel Quinolinium Salts and Derivatives” (IMMUSOL INCORPORATED, priority 2005, published 2008).
Counter-ions that a name gives are not always drawn.

How the values were obtained:
[1] = tested on: various cancer cell lines; settings: reported by Esumi; cited from earlier work
[2] = tested on: HCT116 colon cancer cells; settings: nude mice, HCT116 xenograft, dosed orally or i.p.; minimal change in body weight
From the text: Female athymic nude (nu/nu) mice were inoculated with HCT116 colon cancer cells, and the tumors were allowed to grow to a volume of about 150 mm^3.

Cc1cc(/C=C/c2ccc3cc(N(C)C)ccc3[n+]2C)c(C)n1-c1ccccc1 [pyrvinium pamoate]
toxicity for cancer cell lines during glucose starvation [1]: preferential toxicity

Cc1cc(/C=C/c2ccc3cc(N(C)C)ccc3[n+]2C)c(C)n1-c1ccccc1 [Example 1, Pyrvinium Phosphate]
solubility (physchem; water, thermodynamic from solid): ≥ 1000 µg/mL | toxicity (change in body weight) [2]: no apparent toxicity

Cc1cc(/C=C/c2ccc3cc(N(C)C)ccc3[n+]2C)c(C)n1-c1ccccc1 [Example 2, Pyrvinium Sulfate]
solubility (physchem; saline or isotonic): 1000 µg/mL
